Experimental data reported in publication PMC7819943, “Rice protein-binding microarrays: a tool to detect cis-acting elements near promoter regions in rice”.
The list shows a part of the results.

The sequences below were run against T1, OsSMF1 (Oryza sativa, UniProt Q6ZLB0 1-436) (assay: protein-binding microarray (RPBM); PBS, 2% BSA, 51.3 ng/ul salmon testes DNA, 50 uM zinc acetate, 200 nM TF, 25 C, 1 h; high values mean tight binding). Conditions: protein: recombinant; tags: N-terminal polyhistidine and DsRed monomer fusion (pET32a); chain copies: 2; label: CyDye5-dUTP incorporated in the synthesized complementary strand; 3' TTTTT single-stranded linker to array surface; dsDNA, one strand shown.
T1 sequence: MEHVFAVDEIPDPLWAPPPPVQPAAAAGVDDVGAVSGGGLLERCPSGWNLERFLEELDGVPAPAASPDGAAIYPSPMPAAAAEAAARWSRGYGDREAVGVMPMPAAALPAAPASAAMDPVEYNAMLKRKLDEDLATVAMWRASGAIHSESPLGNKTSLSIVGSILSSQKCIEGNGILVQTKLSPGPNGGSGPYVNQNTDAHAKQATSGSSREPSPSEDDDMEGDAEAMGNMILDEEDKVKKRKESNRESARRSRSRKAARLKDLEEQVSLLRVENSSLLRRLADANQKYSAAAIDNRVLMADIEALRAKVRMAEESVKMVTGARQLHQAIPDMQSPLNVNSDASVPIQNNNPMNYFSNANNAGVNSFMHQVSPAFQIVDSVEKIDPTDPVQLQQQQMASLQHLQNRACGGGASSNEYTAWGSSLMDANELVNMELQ
In short: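 In PBS with 2% BSA, salmon testes DNA and 50 µM zinc acetate, 200 nM protein was incubated on a custom Agilent array at 25 °C for 1 h and then washed off. The array had been made double-stranded by primer extension with Cy5-dUTP and blocked with 2% BSA. The proteins were transcription factors fused N-terminally to polyhistidine and DsRed, expressed in E. coli BL21-CodonPlus and purified on Ni–NTA. The binding signal is per-feature fluorescence intensity (arbitrary units) from an Axon 4000B scanner.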
In the case of “AGTCTCAACATTACATGACACAAGATGATGTAACCTGCAGCGGAGTCACCTAGTGCAG”, the binding signal is reported as 3660 fluorescence intensity (a.u.).
With “TGTTCTTCTTCACGCCGGCTGCAACTACACCTCTTGCATTCGGAGTCACCTAGTGCAG” the binding signal was 3470 fluorescence intensity (a.u.).
For “TGCGAAAGGAACAGTGTTGTGAGGTCGCAATCCCGTCTCGCGGAGTCACCTAGTGCAG”, the binding signal was 3840 fluorescence intensity (a.u.).
“CCTGATATCCATGCATGTGTCATCGTTTGCAGTTGTATTGCGGAGTCACCTAGTGCAG” was tested, and the binding signal was 6660 fluorescence intensity (a.u.).
“TAACTATTTGTCACACCTATCTTAATGACATGTGGATTCACGGAGTCACCTAGTGCAG” was tested, and the binding signal was 3250 fluorescence intensity (a.u.).
“TGGAAGGGGCAGGTTCGAGGTGCTGTCTGGGTATGTCAATCGGAGTCACCTAGTGCAG” was tested, and the binding signal was 3290 fluorescence intensity (a.u.).
In the case of “CACCCGTGCGTAATCATGACGCCGGGGTGACGTCACCATCCGGAGTCACCTAGTGCAG”, the binding signal is reported as 30200 fluorescence intensity (a.u.).
“ACCAACATCAAGTCGTCGGCGCTCGTCAACCAACTCATCACGGAGTCACCTAGTGCAG” was tested, and the binding signal was 3770 fluorescence intensity (a.u.).
“AATTAGCTGATTTGCAAATGATTTCCACCGTGGTGTGACACGGAGTCACCTAGTGCAG” was tested, and the binding signal was 3840 fluorescence intensity (a.u.).
In the case of “CAGCACAGCAATATTAACCATTCTCTCGATCGAGTCAGAACGGAGTCACCTAGTGCAG”, the binding signal is reported as 3280 fluorescence intensity (a.u.).
In the case of “GGAGCTACCCCTCTCACCGGCGCGTGGGCCCCACCTCACGCGGAGTCACCTAGTGCAG”, the binding signal is reported as 4310 fluorescence intensity (a.u.).
With “CGCCCGAGAGCGAACGGCCGTCTGCCACGTCACTTTCGCCCGGAGTCACCTAGTGCAG” the binding signal was 29100 fluorescence intensity (a.u.).
“ATAGAAAGATGTGTTTTGTAGGAAGACGAAGCAAGACTTTCGGAGTCACCTAGTGCAG” was tested, and the binding signal was 34400 fluorescence intensity (a.u.).
For “TACGCCAGAATCCTACATCTGTGACGGCACACCAGTGACGCGGAGTCACCTAGTGCAG”, the binding signal was 3950 fluorescence intensity (a.u.).
For “CATACCCAGAGATCAAATTAAGCCGACGGATCAGCGGAGCCGGAGTCACCTAGTGCAG”, the binding signal was 28200 fluorescence intensity (a.u.).
For “GTAGGTGTCATATGTCAGTTCCAGTCATATTGACAGTTGGCGGAGTCACCTAGTGCAG”, the binding signal was 6590 fluorescence intensity (a.u.).
In the case of “AGGACGGCAGTGCTGCTCCATCAACAACGTGGCTAAGTAACGGAGTCACCTAGTGCAG”, the binding signal is reported as 3140 fluorescence intensity (a.u.).
With “GCACGCCGCGGTCGCGGCTGCCGCCGTGGACGCGGCACAACGGAGTCACCTAGTGCAG” the binding signal was 3980 fluorescence intensity (a.u.).
In the case of “AAGCTTTGGGTTGCTGCTGCGTCACCCCTCTCGGGCCACACGGAGTCACCTAGTGCAG”, the binding signal is reported as 7290 fluorescence intensity (a.u.).
With “TACATTCATCTGACAATGACATATGGACCCCACAGTTCTGCGGAGTCACCTAGTGCAG” the binding signal was 3290 fluorescence intensity (a.u.).
In the case of “GAAATCTAATTTTATCCACGAGACTATAGTGAGCCTACTCCGGAGTCACCTAGTGCAG”, the binding signal is reported as 39700 fluorescence intensity (a.u.).
In the case of “TCGTACCCGTCCTACGTGTCCGCACAGTAGCTCAACCCACCGGAGTCACCTAGTGCAG”, the binding signal is reported as 8630 fluorescence intensity (a.u.).
In the case of “CACCTCGCGCCGCGCCCCATCCTTATCGTCATGACACGCCCGGAGTCACCTAGTGCAG”, the binding signal is reported as 3700 fluorescence intensity (a.u.).
“CGCCAGTTGCTAGCCACGTCGCCTCCGTCCTTGCTACTGCCGGAGTCACCTAGTGCAG” was tested, and the binding signal was 3920 fluorescence intensity (a.u.).
For “TCCCACAGGTGGCGCCGGCGGGTGATCTAGCTACGGACATCGGAGTCACCTAGTGCAG”, the binding signal was 3390 fluorescence intensity (a.u.).
In the case of “TACGGAAACTATCCGTATACGCACGGGTATATCGTATCAGCGGAGTCACCTAGTGCAG”, the binding signal is reported as 3250 fluorescence intensity (a.u.).
In the case of “AGAAGGAAAGAGTTTCATCCTGGTGAAACTCGTCAGCGTCCGGAGTCACCTAGTGCAG”, the binding signal is reported as 3510 fluorescence intensity (a.u.).
For “TTCTCCTGCTCCCGCCGCATCATCGCTCACCGGTGAGCATCGGAGTCACCTAGTGCAG”, the binding signal was 3870 fluorescence intensity (a.u.).
With “GACCAAACCTCCAATTAACAAGGTAGTTTAACACACATCACGGAGTCACCTAGTGCAG” the binding signal was 16100 fluorescence intensity (a.u.).
“TCCAAGCAATGACACTGATCGATCTTCCTGTTCACATATGCGGAGTCACCTAGTGCAG” was tested, and the binding signal was 4190 fluorescence intensity (a.u.).
“TGGTGATAATGTCATTCTGTTATTACAGAGGTCAACGTGTCGGAGTCACCTAGTGCAG” was tested, and the binding signal was 3320 fluorescence intensity (a.u.).
For “ACACCACCCGCCACGCACGTTAACCACGCCGACACGTGGGCGGAGTCACCTAGTGCAG”, the binding signal was 13000 fluorescence intensity (a.u.).
In the case of “TCGATTCGAATCGATCCAGATCGATATATACGTAAGCAACCGGAGTCACCTAGTGCAG”, the binding signal is reported as 3780 fluorescence intensity (a.u.).
For “AACATACTAATTGCATTTTATTAGACGCAGTATTGAGTTCCGGAGTCACCTAGTGCAG”, the binding signal was 24800 fluorescence intensity (a.u.).
In the case of “GTTCGATATTGGGAAGTTGTTAATGTGAACTGTTCTTCAGCGGAGTCACCTAGTGCAG”, the binding signal is reported as 3300 fluorescence intensity (a.u.).
With “ACGGCTAGGATAAGCTCCAGTTAAGACGATCCGACGCGGGCGGAGTCACCTAGTGCAG” the binding signal was 19800 fluorescence intensity (a.u.).
For “CGTTGTCGCAGTTCTTTATTGACAAGACCTCGAGGGACCTCGGAGTCACCTAGTGCAG”, the binding signal was 22500 fluorescence intensity (a.u.).
With “CATGAATTACTGGCATCTTGTAACGGATCCCCTCGTCAAACGGAGTCACCTAGTGCAG” the binding signal was 3570 fluorescence intensity (a.u.).
“TTTTCTTGTTTCGCATGCGCTGAGTATATCCCTCCAATTGCGGAGTCACCTAGTGCAG” was tested, and the binding signal was 3250 fluorescence intensity (a.u.).
“ACTACAAATAGATCGAACAGAAACAGAGCATCACGACGACCGGAGTCACCTAGTGCAG” was tested, and the binding signal was 40300 fluorescence intensity (a.u.).
With “TCCCATGCCACCAATATTGGCCCACTGTCACCTCCTAACCCGGAGTCACCTAGTGCAG” the binding signal was 3160 fluorescence intensity (a.u.).
In the case of “AATATGACTCAGTAGCACGAATGACTCCGTGGCCCAATGGCGGAGTCACCTAGTGCAG”, the binding signal is reported as 5230 fluorescence intensity (a.u.).
In the case of “CCGCCGGAACCAGCCTGGCGGCGGTGACGGCGCCACCACGCGGAGTCACCTAGTGCAG”, the binding signal is reported as 3200 fluorescence intensity (a.u.).
“AAAAGTGACATCAGTACCATAACCTACGAAATTGACAGTTCGGAGTCACCTAGTGCAG” was tested, and the binding signal was 3300 fluorescence intensity (a.u.).
For “TTGTTGTCCCGTGTCTCCGCCGTCGCGTCACCGCCCAGCACGGAGTCACCTAGTGCAG”, the binding signal was 8140 fluorescence intensity (a.u.).
In the case of “GGAAACAGCATCGAACGTCACACGTTCGTCCACGTTATCGCGGAGTCACCTAGTGCAG”, the binding signal is reported as 4760 fluorescence intensity (a.u.).
In the case of “GGTGTGGCGTGAGCGTGACACGGTGTCAACTGTCAAGTGTCGGAGTCACCTAGTGCAG”, the binding signal is reported as 3400 fluorescence intensity (a.u.).
With “ACCATGGATGGATTCCCTCTCCTACCACCACACGTACACCCGGAGTCACCTAGTGCAG” the binding signal was 4090 fluorescence intensity (a.u.).
In the case of “TGAGAGGCTGGGCCCACGCGACATCGACGAAGCGGGCCCACGGAGTCACCTAGTGCAG”, the binding signal is reported as 16400 fluorescence intensity (a.u.).
For “CAAATTTAAAATCCGTACTGACTCATCTACTCCCCTTATGCGGAGTCACCTAGTGCAG”, the binding signal was 26100 fluorescence intensity (a.u.).
For “CGTTGAGGATGATGTTGGTGACGGGGTCGGCGAGGCCAAACGGAGTCACCTAGTGCAG”, the binding signal was 3750 fluorescence intensity (a.u.).
“TGACCATTCTAAAACGATCATACACGTGTGAAACATTTATCGGAGTCACCTAGTGCAG” was tested, and the binding signal was 8620 fluorescence intensity (a.u.).
In the case of “ACTTGTTTCTCCTCCACGTCGGTCGAGTCCGAGTCCACCGCGGAGTCACCTAGTGCAG”, the binding signal is reported as 6280 fluorescence intensity (a.u.).
In the case of “CAAATCCCCAGCCTCCCTCTATAGCTTTGCTATGCTGACTCGGAGTCACCTAGTGCAG”, the binding signal is reported as 6660 fluorescence intensity (a.u.).
